Reference: patent US12065471B2, “B*44 restricted peptides for use in immunotherapy against cancers and related methods” (Immatics Biotechnologies GmbH, priority 2018, dated 2024)
For some of these results: For expression read-outs the peptide stands for its source gene, whose mRNA was measured; the gene is not named for every peptide.

Legend:
[1] = test system: HLA molecules of primary tumor and normal tissue samples; assay: Identification and quantitation of tumor associated peptides presented on the cell surface (HLA immunoprecipitation, label-free LC-MS); design: species or system human; details: cancer entities on which the peptide was found presented (HLA immunoprecipitation, LC-MS); abbreviations in table footnotes
[2] = test system: source genes (mRNA) in tumor and normal tissues; assay: Expression profiling of genes encoding the peptides (RNAseq); design: species or system human; details: for Gene Expression in tumor samples: over-expressed (+): tumor types in which the peptide's source gene is over-expressed compared to a panel of normal tissues (RNAseq); for Gene Expression in tumor samples: highly over-expressed (++): tumor types in which the peptide's source gene is highly over-expressed compared to a panel of normal tissues (RNAseq)

Substance | Peptide Presentation on cancer entities [1] | Gene Expression in tumor samples: over-expressed (+) [2] | Gene Expression in tumor samples: highly over-expressed (++) [2] | Gene Expression in tumor samples: very highly over-expressed (+++) ([2]; tumor types in which the peptide's source gene is very highly over-expressed compared to a panel of normal tissues (RNAseq))
325: peptide found in IGF2BP1 (gene looked up) (AEQEIMKKV; listed as Homo sapiens) [compound 325] | GBC | GBC, HCC, HNSCC, MEL, NSCLCsquam | – | –
288: peptide found in UGT1A3 (gene looked up) (TEHFLKKFF; listed as Homo sapiens) [compound 288] | HCC | – | HCC | –
287: peptide found in UGT1A3 (gene looked up) (REVSVVDIL; listed as Homo sapiens) [compound 287] | HCC | – | HCC | –
373: peptide found in MET (gene looked up) (REDPIVYEI; listed as Homo sapiens) [compound 373] | MEL, NSCLCadeno, UBC | CCC, GBC, RCC | – | –
253: peptide found in EGFR (gene looked up) (QEILHGAVRF; listed as Homo sapiens) [compound 253] | CCC, CRC, GBC, GBM, GC, HCC, HNSCC, NSCLCadeno, NSCLCsquam, OSCAR, PRCA, RCC, UBC | – | GBM | –
328: peptide found in ROS1 (gene looked up) (HENGVLTKF; listed as Homo sapiens) [compound 328] | NSCLCadeno, NSCLCsquam | NSCLCadeno, NSCLCother, NSCLCsquam | – | –
104: peptide found in SIGLEC15 (gene looked up) (EVHSSPAQRW; listed as Homo sapiens) [compound 104] | UBC | AML, CCC, GC, HCC, NHL, OC, PACA, UEC | UBC | –
274: peptide found in PDE11A (gene looked up) (DEIDKLTGY; listed as Homo sapiens) [compound 274] | GC, HCC, PRCA | – | PRCA | –
139: peptide found in LOXL4 (gene looked up) (AESDFSNNML; listed as Homo sapiens) [compound 139] | MEL | – | MEL | –
141: peptide found in DNTT (gene looked up) (SEKWFRMGF; listed as Homo sapiens) [compound 141] | AML | – | AML | –
455: peptide found in PLD4 (gene looked up) (QESVHVASYYW; listed as Homo sapiens) [compound 455] | CLL, UBC, UEC | AML | – | –
152: peptide found in F5 (gene looked up) (HENLIEDF; listed as Homo sapiens) [compound 152] | HCC, OSCAR | CCC | HCC | –
197: peptide found in F5 (gene looked up) (NEILTIHF; listed as Homo sapiens) [compound 197] | BRCA, GC, HCC, NSCLCadeno, NSCLCsquam, OSCAR | CCC | HCC | –
33: peptide found in FLT3 (gene looked up) (IEYENQKRL; listed as Homo sapiens) [compound 33] | AML | – | AML | –
207: peptide found in IRF4 (gene looked up) (LEGGGRGGEF; listed as Homo sapiens) [compound 207] | BRCA, OSCAR | MEL | NHL | –
143: peptide found in NOTUM (gene looked up) (HEIIIRSHW; listed as Homo sapiens) [compound 143] | CRC, HCC, UEC | – | HCC | –
239: peptide found in APOB (gene looked up) (DEDYTYLIL; listed as Homo sapiens) [compound 239] | CCC | – | HCC | –
349: peptide found in MPL (gene looked up) (LEWQHPSSW; listed as Homo sapiens) [compound 349] | AML | AML | – | –
14: peptide found in MMP12 (gene looked up) (EMPGGPVW; listed as Homo sapiens) [compound 14] | CRC, UBC | HCC, RCC | CCC, GBC, GC, MEL, NHL, NSCLCadeno, OC, OSCAR, PACA, UBC, UEC | CRC, HNSCC, NSCLCother, NSCLCsquam, SCLC
118: peptide found in LOXL4 (gene looked up) (SEVPVDSHYY; listed as Homo sapiens) [compound 118] | GBC | CCC | MEL | –
151: peptide found in PTPRZ1 (gene looked up) (TELQIPSF; listed as Homo sapiens) [compound 151] | RCC | – | GBM | –
371: peptide found in TLR3 (gene looked up) (NEIGQELTGQEW; listed as Homo sapiens) [compound 371] | BRCA, CCC, CRC, GBM, HCC, HNSCC, MEL, NSCLCadeno, NSCLCsquam, OC, OSCAR, PACA, PRCA, RCC | RCC | – | –
227: peptide found in EGFR (gene looked up) (ALTEDSIDDTF; listed as Homo sapiens) [compound 227] | GBM | – | GBM | –
304: peptide found in LOXL3 (gene looked up) (RELGFTEATGW; listed as Homo sapiens) [compound 304] | CCC, CRC, GBC, MEL, NHL, NSCLCadeno, NSCLCsquam, OSCAR, RCC, UBC, UEC | – | MEL | –
258: peptide found in APOB (gene looked up) (IEVSSPITL; listed as Homo sapiens) [compound 258] | CCC, HCC, NSCLCadeno | – | HCC | –
300: peptide found in APOB (gene looked up) (KQTEATMTF; listed as Homo sapiens) [compound 300] | CCC | – | HCC | –
327: peptide found in ROS1 (gene looked up) (SEQHSLPVF; listed as Homo sapiens) [compound 327] | NSCLCsquam | NSCLCadeno, NSCLCother, NSCLCsquam | – | –
177: peptide found in LY6K (gene looked up) (LEEPMPFFY; listed as Homo sapiens) [compound 177] | OSCAR | MEL, NSCLCadeno, NSCLCother, NSCLCsquam, OC, OSCAR, UBC | GBC, HNSCC | –
82: peptide found in F5 (gene looked up) (AVFDESKSW; listed as Homo sapiens) [compound 82] | HCC, OSCAR | CCC | HCC | –
